Data set [1] has as its system MDCK cells. Particulars: MDCK cells treated at the IC50 for transacylase inhibition, 7 days, FIG. 2.
Data set [2] has as its system MDCK cells.

Each structure is given as a SMILES string.

For `CCCCc1oc2ccccc2c1C(=O)c1cc(I)c(OCCN(CC)CC)c(I)c1` [Amiodarone, amiodarone], in the data set with MDCK cells [1], the “lysosomal phospholipid inclusions by electron microscopy” value is reported as “obvious lysosomal phospholipid inclusions”. Further, the total phospholipid content entry in the data set on MDCK cells [2] (MDCK cells incubated for up to 7 days, 15 μM, FIG. 1B) was “comparable but greater increases”. Further, the “total phospholipid content (figure legend)” value in the data set with MDCK cells [2] (MDCK cells, 7-day exposure to 15 mM, FIG. 1B) is “greater level of total phospholipid”. Also, in the data set with MDCK cells [2] (MDCK cells, time-dependent changes, FIG. 1C/1D), the “content of phosphatidylethanolamine and phosphatidylcholine” value is reported as “increased”.

The values are drawn from US7319015B2, “Methods and compositions for using alveolar macrophage phospholipase A2” (The Regents of The University of Michigan, priority 2004, dated 2008).
